Taken from: PubChem BioAssay AID1259308 (NCATS, 2017)
Test: 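Candidate targets for better recombinant protein yield in mammalian cells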 (primary screen). Cells: human HEK293 embryonic kidney cells stably expressing firefly luciferase (HEK-CMV-Luc2-Hygro). Reagent: single siRNA against human genes, 0.8 pmol siRNA per well. Duration: 72 h. Measurement: 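Luciferase light (ONE-Glo) measured on one replicate plate set and viability (CellTiter-Glo) on the other, scaled to a negative control siRNA, with robust z-scores and luciferase per cell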. Scale: total luciferase, z-score and total luciferase, % of control: higher = more reporter protein produced. Active means: 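Active when the median/MAD z-score for overall luciferase is greater than 3; a gene was taken forward for validation with new siRNAs if at least two of its three siRNAs passed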. Calls: active = raised luciferase; inactive = no rise.
This is a random part of about 59,000 reagents tested. Over the whole deposit, about 1,510 (2.6%) got an active call. 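Calls use total luciferase alone and ignore viability, so some active siRNAs may act by altering cell number.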 Entries without a mark were called inactive. Reagents against one gene are numbered here. Not all columns of the deposit are shown.

For MEA1 #1, what was measured?
total luciferase, z-score: 4.13 (active); total luciferase, % of control: 164

Which result is listed for MEA1 #2?
total luciferase, z-score: -0.377; total luciferase, % of control: 74.4

How did the screen score MEA1 #3?
total luciferase, z-score: -1.6; total luciferase, % of control: 50

For SSPOP #1, what does the deposit list?
total luciferase, z-score: -0.409; total luciferase, % of control: 73.7

With SSPOP #2, what does the deposit list?
total luciferase, z-score: 0.615; total luciferase, % of control: 94.1

With SSPOP #3, what was measured?
total luciferase, z-score: 0.969; total luciferase, % of control: 101

With DOT1L #1, how do the results read?
total luciferase, z-score: -0.801; total luciferase, % of control: 66

With DOT1L #2, how do the results read?
total luciferase, z-score: -0.723; total luciferase, % of control: 67.5

With DOT1L #3, how do the results read?
total luciferase, z-score: -2.53; total luciferase, % of control: 31.5

For LRP5L #1, what was measured?
total luciferase, z-score: -0.601; total luciferase, % of control: 69.9

Which result is listed for LRP5L #2?
total luciferase, z-score: -0.13; total luciferase, % of control: 79.3

What is on record for LRP5L #3?
total luciferase, z-score: -0.15; total luciferase, % of control: 78.9

What did the screen give for ENTPD1-AS1 #1?
total luciferase, z-score: 0.272; total luciferase, % of control: 87.3

For ENTPD1-AS1 #2, how do the results read?
total luciferase, z-score: -0.247; total luciferase, % of control: 77

For ENTPD1-AS1 #3, what was measured?
total luciferase, z-score: -0.643; total luciferase, % of control: 69.1

How did the screen score ITGB3BP #1?
total luciferase, z-score: -1.42; total luciferase, % of control: 53.6

What is on record for ITGB3BP #2?
total luciferase, z-score: -0.916; total luciferase, % of control: 63.7

Which result is listed for ITGB3BP #3?
total luciferase, z-score: 0.776; total luciferase, % of control: 97.3

How did the screen score RAP1B #1?
total luciferase, z-score: -2.05; total luciferase, % of control: 41

With RAP1B #2, how do the results read?
total luciferase, z-score: 0.0761; total luciferase, % of control: 83.4

For RAP1B #3, what does the deposit list?
total luciferase, z-score: 0.316; total luciferase, % of control: 88.2

With SHC2 #1, what was measured?
total luciferase, z-score: 0.782; total luciferase, % of control: 97.4

With SHC2 #2, what was measured?
total luciferase, z-score: 1.27; total luciferase, % of control: 107

What did the screen give for SHC2 #3?
total luciferase, z-score: -0.716; total luciferase, % of control: 67.6

Reagents listed above marked active (1):
MEA1 #1 — total luciferase, z-score: 4.13 (active); total luciferase, % of control: 164

More results follow:
What is on record for GSR #1?
total luciferase, z-score: -0.312; total luciferase, % of control: 75.7

What is on record for GSR #2?
total luciferase, z-score: 1.07; total luciferase, % of control: 103

How did the screen score GSR #3?
total luciferase, z-score: -1.53; total luciferase, % of control: 51.4

Which result is listed for ZNHIT1 #1?
total luciferase, z-score: 1.16; total luciferase, % of control: 105

For ZNHIT1 #2, what does the deposit list?
total luciferase, z-score: 0.479; total luciferase, % of control: 91.4

What is on record for ZNHIT1 #3?
total luciferase, z-score: -0.695; total luciferase, % of control: 68.1

Which result is listed for TTC7B #1?
total luciferase, z-score: -0.518; total luciferase, % of control: 71.6

With TTC7B #2, how do the results read?
total luciferase, z-score: -0.524; total luciferase, % of control: 71.5

For TTC7B #3, what was measured?
total luciferase, z-score: -0.262; total luciferase, % of control: 76.7

What did the screen give for ZMYND10 #1?
total luciferase, z-score: 2.2; total luciferase, % of control: 126

For ZMYND10 #2, how do the results read?
total luciferase, z-score: 1.35; total luciferase, % of control: 109

With ZMYND10 #3, how do the results read?
total luciferase, z-score: 0.907; total luciferase, % of control: 99.9

With TMEM141 #1, what was measured?
total luciferase, z-score: -0.603; total luciferase, % of control: 69.9

What is on record for TMEM141 #2?
total luciferase, z-score: 0.615; total luciferase, % of control: 94.1

What did the screen give for TMEM141 #3?
total luciferase, z-score: 1.79; total luciferase, % of control: 118

What is on record for SYT13 #1?
total luciferase, z-score: 1.42; total luciferase, % of control: 110

Which result is listed for SYT13 #2?
total luciferase, z-score: -1.56; total luciferase, % of control: 50.9

With SYT13 #3, how do the results read?
total luciferase, z-score: 0.327; total luciferase, % of control: 88.4
